Laboratory results: patent publication US20240383974A1
Results are given in words; binding and its absence hold for the method and conditions named. Some entries that bind do so weakly or less than the wild type.

By UniProt entry, the sequences of proteins in these tests, tags left out. Where a name states a change or a piece, a line headed by the entry shows the natural chain unless it says otherwise. Chains listed by the source or under a name are the forms on record and can include a tag or linker. Residues count along the entry.
UniProt Q9NZQ7, residues 19-290: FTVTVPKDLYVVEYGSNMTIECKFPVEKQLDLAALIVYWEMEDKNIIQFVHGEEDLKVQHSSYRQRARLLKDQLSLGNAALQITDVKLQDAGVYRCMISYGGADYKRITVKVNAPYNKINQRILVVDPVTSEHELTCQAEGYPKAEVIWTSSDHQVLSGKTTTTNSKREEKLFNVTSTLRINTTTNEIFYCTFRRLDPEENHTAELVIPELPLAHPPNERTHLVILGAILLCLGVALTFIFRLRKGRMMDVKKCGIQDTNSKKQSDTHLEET
cynomolgus monkey PD-L1 (G7PSE7, form named): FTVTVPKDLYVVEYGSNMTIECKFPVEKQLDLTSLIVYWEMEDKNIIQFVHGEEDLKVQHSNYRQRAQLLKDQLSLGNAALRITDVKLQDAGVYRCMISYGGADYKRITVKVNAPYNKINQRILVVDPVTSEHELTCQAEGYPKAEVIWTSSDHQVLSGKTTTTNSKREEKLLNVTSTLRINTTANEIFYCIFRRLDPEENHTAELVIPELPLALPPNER
UniProt P01137, residues 279-390: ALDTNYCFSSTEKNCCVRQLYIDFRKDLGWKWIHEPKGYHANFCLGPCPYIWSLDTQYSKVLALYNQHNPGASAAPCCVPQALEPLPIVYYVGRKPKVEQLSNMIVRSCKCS
UniProt Q14392, residues 20-662: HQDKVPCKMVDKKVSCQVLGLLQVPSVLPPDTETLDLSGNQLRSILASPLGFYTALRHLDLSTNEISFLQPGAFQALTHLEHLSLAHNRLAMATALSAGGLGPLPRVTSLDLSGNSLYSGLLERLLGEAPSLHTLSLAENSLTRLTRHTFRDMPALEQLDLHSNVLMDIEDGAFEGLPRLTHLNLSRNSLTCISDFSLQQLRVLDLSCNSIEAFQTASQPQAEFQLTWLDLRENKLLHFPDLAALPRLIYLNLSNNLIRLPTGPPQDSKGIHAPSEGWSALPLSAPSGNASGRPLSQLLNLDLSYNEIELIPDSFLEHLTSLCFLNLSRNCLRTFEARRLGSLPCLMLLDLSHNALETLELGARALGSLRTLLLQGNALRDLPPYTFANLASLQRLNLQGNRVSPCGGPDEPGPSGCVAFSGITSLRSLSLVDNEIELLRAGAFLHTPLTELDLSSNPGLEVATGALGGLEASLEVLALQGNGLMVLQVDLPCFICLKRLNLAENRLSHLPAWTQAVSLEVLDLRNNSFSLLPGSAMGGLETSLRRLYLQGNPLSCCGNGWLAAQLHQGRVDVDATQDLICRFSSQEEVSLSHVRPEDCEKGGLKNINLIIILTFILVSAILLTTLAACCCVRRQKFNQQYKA

Legend:
human PD-L1 (human) [1] = biological target: human PD-L1 (human) (UniProt Q9NZQ7); assay: FACS and ELISA
[2] = biological target: cynomolgus monkey PD-L1 (cynomolgus monkey) (UniProt G7PSE7); assay: FACS and ELISA
human PD-L1 (human) [3] = biological target: human PD-L1 (human) (UniProt Q9NZQ7); assay: FACS on MDA-MB-231 cells (endogenous PD-L1)
[4] = biological target: human transforming growth factor β1 (human) (UniProt P01137); assay: ELISA, plate-coated hTGF-β1
[5] = biological target: GARP-TGF-β complex (293-GARP/TGFβ stably transfected cells) (UniProt Q14392); assay: FACS on 293-GARP/TGFβ cells
[6] = biological target: GARP (CHO-K1-GARP cell line that overexpresses GARP) (UniProt Q14392); assay: FACS on CHO-K1-GARP cells

| Binder | binding (human PD-L1 (human) [1]) | binding [2] | binding (human PD-L1 (human) [3]) | binding [4] | binding [5] | binding [6] |
| --- | --- | --- | --- | --- | --- | --- |
| antibody A (VHH) VHH: QVQLVESGGGLVQAGGSLRLSCAASGRSFSSSGMGWFRQAPGKDREFVATINSSGGDTYYRDSVEGRFTTSRDNAKNTMSLQMNDLKPEDTAVYYCAAKEGGGPSSIPAIYDYWGQGTQVTVSS | binds | binds | binds |  |  |  |
| antibody D2hu (VHH) VHH: EVQLVESGGGLVQPGGSLRLSCAASGRDFLTYGMGWFRQAPGKGLEFVASINWSGSMTYYADSVKGRFTISRDNAKNSVYLQMNSLRAEDTAVYICAARRGAVTYASSNEYEHWGQGTQVTVSS | binds | binds |  |  |  |  |
| antibody m107-hu (antibody, V domains shown) VH: QVQLVQSGAEVKRPGASVKVSCKASGYTFSAYTIHWVKQRPGQGLEWIGYINPSNDFAKYIQKFKDKVTITADKSTSTAYMELNSLRSEDTAVYYCARVDYYGGSYRWYLDVWGQGTTVTVSS VL: DIVLTQSPATLSLSPGERATLSCRASQSISNNLHWYQQKPGEAPRLLIKYTSQSISGIPARFSGSGSGTDFTLTISSLEPEDFAVYFCQQSNSWPIFTFGQGTKLEIK |  |  |  | binds | binds |  |
| antibody m202-hu (antibody, V domains shown) VH: QVQLVQSGAEVKKPGASVKVSCKASGYTFTSYWMHWVKQAPGQGLEWIGNINPSNGDTNYNEKFKSKATLTVDKSTSTAYMELRSLRSDDTAVYYCARATYGSYGYFDVWGQGTLVTVSS VL: DIVLTQSPDSLAVSLGERATINCRASESVTIIGTNLIQWFQQKPGQPPKLLIYHASNLETGVPDRFSGSGSRTDFTLTISSLQAEDVAVYYCLQSRQIPRTFGGGTKVEIK |  |  |  | binds | binds |  |
| antibody m301-hu (antibody, V domains shown) VH: QVQLQESGPGLVKPSGTLSLTCAVSGFSLTTYGVTWVRQPPGKGLEWIGLIWGDGTTDYHSTFISRLTISKDKSKNQVSLKLSSVTAADTAVYYCASYYFAMHYWGQGTLVTVSS VL: DIVMTQSPDSLAVSLGERATINCKSSQSLLNSRTQKNYLAWYQQKPGQSPKLLIYWASTRESGVPDRFSGSGSGTDFTLTISSLQAEDVAVYYCKQSYNLWTFGGGTKVEIK |  |  |  | binds | binds |  |
| antibody m109-hu (antibody, V domains shown) VH: EVQLVESGGGLVQPGGSLRLSCATSGFTFSDYYMYWVRQTPEKRLEWVAYISNGGGRTYYPDTVKGRFTISRDNAKNSLYLQMSRLRAEDTAVYYCARQKTNYGNYEEDYYAMGYWGQGTSVTVSS VL: DIVLTQSPASLAVSLGQRATITCRASKSVSTSGYSYIHWYQQKPGQPPKLLIYLASNLESGVPARFSGSGSGTDFTLTINPVEEEDAATYYCQHSRELPLTFGAGTKLEIK |  |  |  | binds | binds |  |
| antibody B (VHH) VHH: QVQLVESGGGLVQPGGSLSLSCVASGFTFSSYAMRWVRQAPGKEPEWVAGINTGSEIVVYANSVRGRFAISRDNARDTLFLQMNSLKPEDTAVYYCATGLVSAEHDGIWGQGTQVTVSS | binds | binds | binds |  |  |  |
| antibody C (VHH) VHH: EVQLVESGGGSVQTGGSLRLSCVASGRDFLTYGMGWFRQAPGKEREFVASINWSGSMTYYADSVKGRFTISRDNAKNTVYLQMNSLKPGDTAVYICAARRGAVTYASSNEYEHWGQGTQVTVSS | binds | binds | binds |  |  |  |
| antibody D (VHH) VHH: EVQLVESGGGLVQAGDSLRLSCTASGRDFLTYGMGWFRQAPGKEREFVASINWSGSMTYYADSVKGRFTISRDNAKNTVYLQMNSLKPGDTAVYICAARRGAVTYASSNEYEHWGQGTQVTVSS | binds | binds | binds |  |  |  |
| antibody E (VHH) VHH: QVQLVESGGGLVQAGGSLRLSCAASGRSFSSSGMGWFRQAPGKDREFVATINSSGGDTYYADSVEGRFTTSRDNAKNTMSLQMNDLKPEDTAVYYCAAKEGGGPSSIPAIFDYWGQGTQVTVSS | binds | binds | binds |  |  |  |
| antibody Ahu (VHH) VHH: QVQLVESGGGVVQPGGSLRLSCAASGRSFSSSGMGWFRQAPGKGREFVATINSSGGDTYYRDSVEGRFTTSRDNSKNTMYLQMNSLRAEDTAVYYCAAKEGGGPSSIPAIYDYWGQGTLVTVSS | binds | binds |  |  |  |  |
| antibody Bhu (VHH) VHH: QVQLVESGGGVVQPGGSLRLSCAASGFTFSSYAMRWVRQAPGKGLEWVAGINTGSEIVVYANSVRGRFTISRDNSRDTLYLQMNSLRAEDTAVYYCATGLVSAEHDGIWGQGTQVTVSS | binds | binds |  |  |  |  |
| antibody Chu (VHH) VHH: EVQLVESGGGLVQPGGSLRLSCAASGRDFLTYGMGWFRQAPGKGREFVASINWSGSMTYYADSVKGRFTISRDNAKNTVYLQMNSLKAEDTAVYICAARRGAVTYASSNEYEHWGQGTLVTVSS | binds | binds |  |  |  |  |
| antibody D1hu (VHH) VHH: EVQLVESGGGLVQPGGSLRLSCTASGRDFLTYGMGWFRQAPGKELEFVASINWSGSMTYYADSVKGRFTISRDNAKNTVYLQMNSLRAEDTAVYICAARRGAVTYASSNEYEHWGQGTQVTVSS | binds | binds |  |  |  |  |
| antibody m212 (antibody, V domains shown) VH: QVQLQQPGPELVKPGASVKLTCKASGYIFTSYWMHWVKRGPGRGLEWIGRIAPNSGGAHYHEKFKTKVTLTVDKPSSTAYMEFSSLTSEDSAVYYCARGNYGMDYWGQGTAVTVSS VL: DIQMTQTTSSLSASLGDRVTISCRASQDISNYLNWYQQKPDGTVELLIYYTSTLHSGVPSRFSGSGSGTDYSLTISNLEQEDIATYFCQQVNTLPFTFGSGTKLEII |  |  |  |  | binds | binds |
| antibody m305 (antibody, V domains shown) VH: EVQLQQSGPELVKPGASVKIPCKTSGYTFTDYNMNWVKQSHGKSLEWIGDINPYSGGTIYNQKFKGKAILTVDKSSSTAYMELRSLTSEDTGIYYCARVSKGSGDYWGQGTTLTVSS VL: DIQMTQSPSSLSASLGERVSLTCRASQEISGYLSWLQQKPDGTIKRLIYAASTLDSGVPKRFSGSRSGSDYSLTISSLESEDFADYYCLQYASYPTCTFGGGTKLEIK |  |  |  |  | binds | binds |
| antibody m107 (antibody, V domains shown) VH: QVHLQQSGAALARPGASVKMSCKASGYTFSAYTIHWVKQRPGQGLEWIGYINPSNDFAKYIQKFKDKATLTADKSSSTAYMQLNSLTSEDSAIYYCARVDYYGGSYRWYLDVWGAGTTVTVSS VL: DIVLTQSPATLSVTPGDSVSLSCRASQSISNNLHWYQQKSHESPRLLIKYTSQSISGIPSRFSGSGSGTDFTLSINSVETEDFGMYFCQQSNSWPIFTFGSGTKLEIK |  |  |  |  | binds | binds |
| antibody m202 (antibody, V domains shown) VH: QVQLQQPGTELVKPGASVKLSCKASGYTFTSYWMHWVKQRPGQGLEWIGNINPSNGDTNYNEKFKSKATLTVDKSSSTAYMQLSSLTSDDSAVYYCARATYGSYGYFDVWGTGTAVTVSS VL: DIVLTQSPASLAMSLGKRATISCRASESVTIIGTNLIQWFQQKPGQPPKLLIYHASNLETGVPARFSGSGSRTDFTLTIDPVEEDDVAIYYCLQSRQIPRTFGGGTKLEIK |  |  |  | binds | binds |  |
| antibody m301 (antibody, V domains shown) VH: QVQLKESGPGLVAPSQSLSITCTVSGFSLTTYGVTWVRQPPGKGLQWLGLIWGDGTTDYHSTFISRLSISKDKSKNQVFFKLNSLQTDDTATYYCASYYFAMHYWGQGTSVTVSS VL: DIVMSQSPSSLAVSAGEKVTMNCKSSQSLLNSRTQKNYLAWYQQKPGQSPKLLIYWASTRESGVPDRFTGSGSGTDFTLTIISVQAEDLAVYYCKQSYNLWTFGGGTKLEIK |  |  |  | binds | binds |  |
| antibody m109 (antibody, V domains shown) VH: EVKLVESGGGLVQPGGSLKLSCATSGFTFSDYYMYWVRQTPEKRLEWVAYISNGGGRTYYPDTVKGRFTISRDNAKNTLYLQMSRLKSEDRAIYYCARQKTNYGNYEEDYYAMGYWGQGTSVTVSS VL: DIVLTQSPASLAVSLGQRATISCRASKSVSTSGYSYIHWYQQKPGQPPKLLIYLASNLESGVPARFSGSGSGTDFTLNIHPVEEEDAATYYCQHSRELPLTFGAGTKLDLK |  |  |  | binds | binds |  |
| antibody m212-hu (antibody, V domains shown) VH: QVQLVQSGAEVKKPGSSVKVSCKASGYIFTSYWMHWVKQAPGQGLEWIGRIAPNSGGAHYHEKFKTKVTITADKSTSTAYMEFSSLRSEDTAVYYCARGNYGMDYWGQGTAVTVSS VL: DIQMTQSPSSLSASVGDRVTITCRASQDISNYLNWYQQKPGGAPELLIYYTSTLHSGVPSRFSGSGSGTDYTLTISSLQPEDFATYFCQQVNTLPFTFGSGTKLEIK |  |  |  |  | binds | binds |
| antibody m305-hu (antibody, V domains shown) VH: QVQLVQSGAEVKKPGASVKVSCKTSGYTFTDYNMNWVKQAPGQGLEWIGDINPYSGGTIYNQKFKGRATLTTDTSTSTAYMELRSLRSDDTAVYYCARVSKGSGDYWGQGTLVTVSS VL: DIQMTQSPSSLSASVGDRVTITCRASQEISGYLSWLQQKPGGAPKRLIYAASTLDSGVPSRFSGSRSGTDYTLTISSLQPEDFATYYCLQYASYPTCTFGGGTKVEIK |  |  |  |  | binds | binds |
